Measurements from the supplement of paper PMC7024190.
Counter-ions that a name gives are not always drawn. This is one part of the list. This data set is noisy: repeats of one test often differ as much as different tests do.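 A first-round screen of about ten thousand compounds sought those raising reporter output, using human embryonic kidney cells briefly transfected with a plasmid carrying a Renilla luciferase gene driven by the HSV-TK promoter.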

system: HEK 293FT; experiment: log relative Renilla luciferase luminescence (reporter expression vs reference, reference not stated) (log (base not stated)); higher = higher recombinant reporter expression; conditions: 10 µM; time after transfection 48 h

Structure (SMILES) | log
C[C@H](CCC(=O)O)[C@H]1CC[C@H]2[C@@H]3CC[C@@H]4CCCC[C@]4(C)[C@H]3CC[C@]12C [ursocholanic acid] | -0.224
CC1=C(CC(=O)O)c2cc(F)ccc2/C1=C\c1ccc([S+](C)[O-])cc1 (stereo not given) [sulindac] | 0.0335
CC(Oc1c(Cl)cccc1Cl)C1=NCCN1 (stereo not given) [lofexidine  hydrochloride] | -0.0105
Cc1cccc2c3c(ccc12)C1=C(C(=O)C3=O)[C@@H](C)CO1 [dihydrotanshinone i] | -0.134
C[C@]12CC[C@@H]3c4ccc(O)cc4CC[C@H]3[C@@H]1C[C@@H](O)[C@@H]2O [estriol] | 0.0437
CCOc1ccc(C(=O)c2ccc(O)c(O)c2O)cc1 [2,3,4-trihydroxy-4'-ethoxybenzophenone] | -0.0238
CCCCC(=O)O[C@]1(C(=O)CO)CC[C@H]2[C@@H]3CCC4=CC(=O)CC[C@]4(C)[C@H]3[C@@H](O)C[C@@]21C [hydrocortisone valerate] | 0.0866
CCc1cccc2c3c([nH]c12)C(CC)(CC(=O)O)OCC3 (stereo not given) [etodolac] | 0.121
Cc1noc(NS(=O)(=O)c2ccc(N)cc2)c1C [sulfisoxazole] | 0.00411
CN(C)[C@@H]1C(O)=C(C(N)=O)C(=O)[C@@]2(O)C(O)=C3C(=O)c4c(O)ccc(Cl)c4[C@@H](O)[C@H]3C[C@@H]12 [demeclocycline hydrochloride] | 0.0615
COC(=O)[C@@H]1OC(=O)C2OC23[C@@]1(C)CCC1[C@@]2(C)CCC(=O)C(C)(C)C2C[C@@H](OC(C)=O)[C@]13C (stereo not given in full) [dihydrogedunic acid, methyl ester] | 0.156
Cn1c([N+](=O)[O-])cnc1COC(N)=O [ronidazole] | 0.037
NC(N)=O [urea] | -0.0748
COc1ccc(C(=O)NCc2ccc(OCCN(C)C)cc2)cc1OC [itopride  hydrochloride] | 0.0795
N[C@@H](C(=O)N[C@@H]1C(=O)N2C(C(=O)O)=C(Cl)CS[C@H]12)c1ccccc1 [cefaclor] | -0.316
COc1ccc(-c2cc(C(F)F)nn2-c2ccc(S(N)(=O)=O)cc2)cc1F [deracoxib] | 0.0569
CC(Oc1ccccc1)C(=O)N[C@@H]1C(=O)N2[C@@H]1SC(C)(C)[C@@H]2C(=O)O (stereo not given in full) [phenethicillin potassium] | 0.127
OC[C@H]1O[C@@H](O[C@@H]2[C@@H](CO)OC(O)(CO)[C@H]2O)[C@H](O)[C@@H](O)[C@H]1O (mixture of isomers) [lactulose] | 0.131
C[C@@H]1CC[C@@]2(OC1)O[C@H]1C[C@H]3[C@@H]4CC[C@@H]5C[C@@H](O)CC[C@]5(C)[C@H]4CC[C@]3(C)[C@H]1[C@@H]2C [smilagenin] | 0.0431
Cc1cc(O)c(C=O)c2c1C(=O)Oc1c(COC(=O)/C=C/C(=O)O)c(O)c(C(=O)O)c(C)c1O2 [fumarprotocetraric acid] | 0.184
CN(C)CCOC(=O)COc1ccc(Cl)cc1 [meclofenoxate hydrochloride] | 0.0186
O=C(OCc1ccccc1)c1ccccc1 [benzyl benzoate] | -0.0614
CCCc1nc(C(C)(C)O)c(C(=O)O)n1Cc1ccc(-c2ccccc2-c2nnn[nH]2)cc1 [olmesartan] | -0.0819

Shown with tabs: 2 of the compounds above
Structure (SMILES)	log
CC1=C(CC(=O)O)c2cc(F)ccc2/C1=C\c1ccc([S+](C)[O-])cc1 (stereo not given) [sulindac]	0.0335
CC(Oc1c(Cl)cccc1Cl)C1=NCCN1 (stereo not given) [lofexidine  hydrochloride]	-0.0105

Further compounds follow:

Structure (SMILES) | log
Cc1ccc2c(Cl)cc(Cl)c(O)c2n1 [chlorquinaldol] | -0.0396
N=C(N)N/N=C/c1c(Cl)cccc1Cl [guanabenz acetate] | 0.277
OC(CCN1CCCCC1)(c1ccccc1)C1CCCCC1 (stereo not given) [trihexyphenidyl hydrochloride] | -0.0675
CN(C)CC[C@@H](c1ccc(Cl)cc1)c1ccccn1 [dexchlorpheniramine maleate] | 0.0626
CN(CCOc1ccc(CC2SC(=O)NC2=O)cc1)c1ccccn1 (stereo not given) [rosiglitazone maleate] | 0.243
C[C@H]1C[C@@H]2[C@H]([C@@H](O)C[C@@]3(C)[C@H]2CC[C@]3(O)C(=O)COC(=O)CCC(=O)O)[C@@]2(C)C=CC(=O)C=C12 [methylprednisolone sodium succinate] | -0.0256
Nc1cc(-c2ccncc2)c[nH]c1=O [inamrinone] | 0.0264
CC(N)C12CC3CC(CC(C3)C1)C2 (stereo not given) [rimantadine hydrochloride] | 0.00622
COC(=O)C(N)CS (stereo not given) [mecysteine hydrochloride] | -0.725
CC(C)(C(=O)c1cccnc1)c1cccnc1 [metyrapone] | 0.0547
NCCCCNCCCN [spermidine trihydrochloride] | 0.0442
CN1CC(=O)NC1=N [creatinine] | 0.0872
C=CC(C)(O)CCC1C(=C)CC(O)C2C(C)(C)CCCC12C (stereo not given) [larixol] | 0.0431
CC(=O)N(O)CCCCCNC(=O)CCC(=O)N(O)CCCCCNC(=O)CCC(=O)N(O)CCCCCN [deferoxamine mesylate] | -0.275
O=C1Cc2cc(CCN3CCN(c4nsc5ccccc45)CC3)c(Cl)cc2N1 [ziprasidone mesylate] | -0.00118
CC(C)/N=c1\cc2n(-c3ccc(Cl)cc3)c3ccccc3nc-2cc1Nc1ccc(Cl)cc1 [clofazimine] | 0.027
CCNC(=O)CC[C@H](N)C(=O)O [theanine potassium] | 0.252
CO[C@@]1(NC(=O)CSCC#N)C(=O)N2C(C(=O)O)=C(CSc3nnnn3C)CS[C@@H]21 [cefmetazole sodium] | 0.114
C[C@@H]1[C@H](O)[C@@H](C)/C=C/C=C/C=C/C=C/C=C/C=C/C=C/[C@H](O[C@@H]2O[C@H](C)[C@@H](O)[C@H](N)[C@@H]2O)C[C@@H]2O[C@](O)(C[C@@H](O)C[C@@H](O)[C@H](O)CC[C@@H](O)C[C@@H](O)CC(=O)O[C@H]1C)C[C@H](O)[C@H]2C(=O)O [amphotericin b] | -0.382
CCOC(=O)C(C)(C)Oc1ccc(Cl)cc1 [clofibrate] | 0.138
CC(=O)O[C@H]1CC[C@]2(C)C3CC[C@@]4(C)[C@H](C5CC(C6OC6(C)C)OC5O)CC[C@]4(C)C3=CC[C@H]2C1(C)C (stereo not given in full) [turraeanthin] | -0.0272
CCC(NC(C)C)C(O)c1ccc(O)c(O)c1 (stereo not given) [isoetharine mesylate] | -0.00861
